These results are taken from patent US20180298095A1.

Amino acid sequences for entries named in this document (tags omitted). A change or cut given only in a name is not applied to a line headed by its entry.
UniProt P13688: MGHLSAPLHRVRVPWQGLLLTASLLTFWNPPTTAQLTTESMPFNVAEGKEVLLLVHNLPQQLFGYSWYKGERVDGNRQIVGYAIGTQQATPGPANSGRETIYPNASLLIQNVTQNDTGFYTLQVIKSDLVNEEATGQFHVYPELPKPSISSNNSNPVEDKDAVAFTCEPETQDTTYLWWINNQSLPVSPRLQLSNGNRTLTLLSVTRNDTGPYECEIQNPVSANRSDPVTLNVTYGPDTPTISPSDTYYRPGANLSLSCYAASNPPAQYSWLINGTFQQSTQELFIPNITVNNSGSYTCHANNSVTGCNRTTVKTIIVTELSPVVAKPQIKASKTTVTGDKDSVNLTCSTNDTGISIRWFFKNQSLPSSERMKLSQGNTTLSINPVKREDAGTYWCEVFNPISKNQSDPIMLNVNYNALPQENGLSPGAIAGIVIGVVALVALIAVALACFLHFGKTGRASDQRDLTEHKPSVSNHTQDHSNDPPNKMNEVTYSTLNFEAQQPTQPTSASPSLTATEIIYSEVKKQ

No constants are given. Whether binding was seen depends on the method and setting. Some entries that bind do so weakly or less than the wild type.

The test has as its target T1, human TIM-4 (human) (UniProt Q96H15).
T1 sequence: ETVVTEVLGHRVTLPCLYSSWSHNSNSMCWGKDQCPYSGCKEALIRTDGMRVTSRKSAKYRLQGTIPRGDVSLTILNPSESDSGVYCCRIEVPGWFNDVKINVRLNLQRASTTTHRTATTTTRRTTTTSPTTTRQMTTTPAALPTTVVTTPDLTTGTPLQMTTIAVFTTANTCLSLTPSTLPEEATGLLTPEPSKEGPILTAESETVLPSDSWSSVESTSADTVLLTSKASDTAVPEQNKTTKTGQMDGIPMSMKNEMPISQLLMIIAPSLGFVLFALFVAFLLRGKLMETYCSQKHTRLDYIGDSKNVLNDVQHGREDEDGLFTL
Briefly: method not described ('as demonstrated herein').

For “human CEACAM1 (from UniProt P13688 35-526) (receptor)”, the binding entry is reported as “binds”.
